{"source": "PubChem BioAssay AID652259 – Drosophila RNAi Screening Center | 2013", "purpose": "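Genome-wide hunt for genes that control Wingless pathway activity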 (primary screen)", "cells": "Drosophila clone 8 imaginal disc epithelial cells", "reagent": "long dsRNA against Drosophila genes", "treatment": "pathway stimulated by co-transfected Wingless expression plasmid", "detection": "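Dual luciferase reads per well after Wingless plasmid stimulation: reporter firefly light and Renilla control light; activity is firefly divided by Renilla, a ratio not deposited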", "reading the numbers": "firefly reporter light: higher = more Wg reporter light, before normalisation; Renilla control light: higher = more transfected or surviving cells", "rule for the call": "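Strong candidates differ from their plate mean by at least two out of four per-plate statistical tests; weak candidates meet just one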", "meaning of the calls": "active = candidate regulator (raises or lowers reporter); inactive = not a candidate", "note": "In all, the deposit lists about 22,000 reagents; below is an unselected part of those that have a named target and a result. Of all reagents, 233 (1.1%) got an active call. 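Light values are raw, unnormalised plate reads; the ratio scores behind the reporter calls were not deposited.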 The numbers tell different reagents against one gene apart. Not stated in the record: the amount of reagent, the time to read-out, the dose of the treatment."}
{"gene": "Cul2", "reagent": 1, "firefly reporter light, replicate 1": 7957, "Renilla control light, replicate 1": 1932, "outcome": "inactive"}
{"gene": "PIG-A", "reagent": 1, "firefly reporter light, replicate 1": 11332, "Renilla control light, replicate 1": 3169, "outcome": "inactive"}
{"gene": "Cse1", "reagent": 1, "firefly reporter light, replicate 1": 4548, "firefly reporter light, replicate 2": 6.76e5, "Renilla control light, replicate 1": 1269, "Renilla control light, replicate 2": 3.49e5, "outcome": "inactive"}
{"gene": "CG9877", "reagent": 1, "firefly reporter light, replicate 1": 3516, "firefly reporter light, replicate 2": 9097, "Renilla control light, replicate 1": 998, "Renilla control light, replicate 2": 3248, "outcome": "inactive"}
{"gene": "Nup62", "reagent": 1, "firefly reporter light, replicate 1": 24486, "Renilla control light, replicate 1": 4137, "outcome": "inactive"}
{"gene": "Cpr97Ea", "reagent": 1, "firefly reporter light, replicate 1": 9895, "Renilla control light, replicate 1": 3078, "outcome": "inactive"}
{"gene": "CG46339", "reagent": 1, "firefly reporter light, replicate 1": 1709, "firefly reporter light, replicate 2": 7521, "Renilla control light, replicate 1": 792, "Renilla control light, replicate 2": 2245, "outcome": "inactive"}
{"gene": "Golgin97", "reagent": 1, "firefly reporter light, replicate 1": 17276, "Renilla control light, replicate 1": 5194, "outcome": "inactive"}
{"gene": "Ir48b", "reagent": 1, "firefly reporter light, replicate 1": 6641, "Renilla control light, replicate 1": 2317, "outcome": "inactive"}
{"gene": "CG8837", "reagent": 1, "firefly reporter light, replicate 1": 2429, "firefly reporter light, replicate 2": 6523, "Renilla control light, replicate 1": 864, "Renilla control light, replicate 2": 2092, "outcome": "inactive"}
{"gene": "CG9512", "reagent": 1, "firefly reporter light, replicate 1": 2091, "firefly reporter light, replicate 2": 7570, "Renilla control light, replicate 1": 1027, "Renilla control light, replicate 2": 3024, "outcome": "inactive"}
{"gene": "Cngl", "reagent": 1, "firefly reporter light, replicate 1": 5552, "Renilla control light, replicate 1": 839, "outcome": "inactive"}
{"gene": "Cngl", "reagent": 2, "firefly reporter light, replicate 1": 1992, "firefly reporter light, replicate 2": 4455, "Renilla control light, replicate 1": 717, "Renilla control light, replicate 2": 1541, "outcome": "inactive"}
{"gene": "Cngl", "reagent": 3, "firefly reporter light, replicate 1": 23030, "Renilla control light, replicate 1": 11922, "outcome": "inactive"}

Part of the list above in another layout.
Nup62 — firefly reporter light, replicate 1 = 24486; Renilla control light, replicate 1 = 4137; outcome = inactive
Cpr97Ea — firefly reporter light, replicate 1 = 9895; Renilla control light, replicate 1 = 3078; outcome = inactive
